The values that follow come from PubChem BioAssay AID1487 (National Center for Advancing Translational Sciences (NCATS), 2009).

This is one part of the list. Further columns of the screen follow, without active or inactive calls. Compounds called inactive in the main read-out are mostly missing here. Words in brackets tell the shape of the fitted curve; partial curves, single points and poor fits give uncertain potencies.

A short description of the assay: qHTS Assay for Modulators of Lamin A Splicing. The following applies: HeLa LMNA splicing GFP/RFP minigene ratio, 48 h. The gist of the method: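 S3 HeLa stable clones carrying a lamin A-EGFP splicing minigene plus DsRed2 were seeded at 600 cells/well in Opti-MEM with 2% FBS, pin-dosed and incubated 48 h at 37°C. Acumen cytometry (488 nm) gave the GFP/RFP total-intensity ratio.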
On the technique in general: qHTS replaces the single test concentration by a dilution series.

Setting [1] is: measured here: GFP splicing reporter channel.
The mark [2] stands for this setting: measured here: RFP viability control channel.

With `COc1ccc(NC(=O)C2CCN(S(=O)(=O)c3ccc(Br)s3)CC2)cc1OC`, the AC50 (in general, the concentration giving half of the maximal activity seen) by setting is: under setting [1], 14.1 µM [rising, partial curve, poor fit]; under setting [2], 15.8 µM [rising, single point].
Consider `Cc1cc(=O)[nH]c(NCCO)n1`, for which the AC50 under setting [1] is 0.0282 µM [falling, full curve, poor fit].
For `S=c1[nH]nc(COc2ccccc2)n1/N=C/c1ccco1`, the AC50 under setting [2] was 0.178 µM [rising, full curve, poor fit].
Turning to `O=c1c2cnn(-c3ccccc3)c2nnn1Cc1ccccn1`, the AC50 under setting [2] is 35.5 µM [rising, single point].
In the case of `CSc1ccc(CNC(=O)CCc2c(C)nn(-c3ccc(N4CCCC4)nn3)c2C)cc1`, the AC50 reads like this: under setting [1], 0.224 µM [falling, full curve, poor fit]; under setting [2], 0.251 µM [falling, full curve, poor fit].
Take `O=c1[nH]c(Cc2cccs2)nc2scc(-c3ccc(Cl)cc3)c12`: under setting [1], the AC50 was 2.51 µM [rising, partial curve].
In the case of `CCOC(=O)c1c(NC(=O)CSc2nnc(-c3c[nH]c4ccccc34)n2C)sc2c1CCCC2`, the AC50 under setting [2] was 20 µM [rising, partial curve].
Still for that read-out and setting: next, `Cc1cc(C)c2nc(NC(=O)c3ccc(S(=O)(=O)N4CCC(C)CC4)cc3)sc2c1`: 10 µM [falling, partial curve].
With `N#CC1=C2SCC(O)(c3ccccc3)N2C(=O)CC1c1cccs1` (stereo unspecified), the AC50 was 8.91 µM [rising, partial curve, poor fit] under setting [1] and 7.94 µM [rising, partial curve] under setting [2].
Take `O=C(Nc1ccccc1)Nc1nc(-c2ccc(F)cc2)cs1`: the AC50 under setting [2] is 31.6 µM [rising, single point].
In the case of `Cc1ccc(-c2noc(C3CCN(C(=O)Nc4ccc(C#N)cc4)CC3)n2)o1`, under setting [2], the AC50 is 20 µM [rising, single point].
Take `S=C(NCCOCCOCCNC(=S)Nc1ccccc1)Nc1ccccc1`: the AC50 under setting [1] is 11.2 µM [falling, single point] and the AC50 under setting [2] was 35.5 µM [falling, single point].
On to `CCc1ccc2nc(SCC(=O)N3CC(=O)Nc4ccccc43)c(C#N)cc2c1`, for which the AC50 under setting [2] is 17.8 µM [rising, partial curve, poor fit].
For `COc1ccc(C(=O)Nc2ccccc2-c2nc3ccccc3s2)c(OC)c1`, the AC50 under setting [1] is 1.58 µM [falling, full curve, poor fit] and the AC50 under setting [2] is 2 µM [falling, full curve].
For the molecule `Cc1ccc2nc(C3CCCN(C(=S)Nc4cccc(C)c4C)C3)[nH]c2c1` (stereo unspecified), the AC50 under setting [2] is 0.0282 µM [falling, partial curve].
`COc1ccc(Nc2cc(C(=O)NCCCN(C)Cc3ccccc3)c3ccccc3n2)cc1`: the AC50 under setting [1] is 5.62 µM [falling, single point].
For the molecule `CCN(CC)C(=O)N1CCC(NC(=O)c2ccc(C(C)(C)C)cc2)CC1`, the AC50 under setting [1] was 15.8 µM [rising, single point].
As to `C=CCNC(=O)c1ccc(C2SCC(=O)N2Cc2ccccc2)cc1` (stereo unspecified), the AC50 under setting [2] is 0.0501 µM [falling, full curve, poor fit].
Regarding `O=C(CCl)N(C/C=C/c1ccccc1)c1ccc2c(c1)OCCO2`, the AC50 under setting [2] is 3.98 µM [falling, single point].
`COc1ccc(-c2nc(C#N)c(NCc3ccc(F)cc3)o2)cc1OC`: under setting [2], the AC50 is 20 µM [rising, single point].
Still for that read-out and setting: with `CC(=O)c1ccc(NC(=O)CSc2nc(C3CCCC3)nc3c2c(=O)n(C)c(=O)n3C)cc1` the figure was 1.58 µM [rising, partial curve].
In the case of `CCN(CC)S(=O)(=O)c1ccc(OC)c(NC(=O)CSc2cc(Cl)ccc2Cl)c1`, the AC50 reads like this: under setting [1], 11.2 µM [rising, single point]; under setting [2], 15.8 µM [rising, single point].
`CCOc1ccc(NC(=O)c2nsc(Cl)c2Cl)cc1`: under setting [2], the AC50 was 3.16 µM [falling, full curve, poor fit].
As to `Cc1ccc(N2C(=O)CN(Cc3sccc3C)C2=S)cc1C`, the AC50 under setting [2] was 31.6 µM [rising, single point].
As to `NS(=O)(=O)c1cc2c(cc1Cl)NC(C1C[C@H]3C=C[C@@H]1C3)NS2(=O)=O` (stereo partly specified), the AC50 by setting is: under setting [1], 22.4 µM [rising, single point]; under setting [2], 6.31 µM [falling, partial curve].
In the case of `COc1cccc(CC2(CO)CCCN(Cc3cc(F)ccc3-n3cccn3)C2)c1` (stereo unspecified), the AC50 under setting [1] was 28.2 µM [falling, partial curve] and the AC50 under setting [2] was 12.6 µM [falling, partial curve].
As to `COc1nc(Cl)cn(-c2ccc(C)cc2)c1=O`, under setting [2], the AC50 is 0.0126 µM [falling, full curve, poor fit].
`O=C(Nc1cc(=O)c2ccccc2o1)N1CCOCC1`: the AC50 under setting [2] was 22.4 µM [rising, single point].
Turning to `C=CC1=C(C)/C(=C/c2[nH]c(Cc3[nH]c(/C=C4\NC(=O)C(C)=C4C=C)c(C)c3CCC(=O)O)c(CCC(=O)O)c2C)NC1=O`, the AC50 under setting [2] is 17.8 µM [rising, single point].
Take `Cc1ccc(-n2c(C)cc(/C=N/NC(N)=S)c2C)cc1`: the AC50 under setting [2] is 14.1 µM [rising, single point].
On to `C=CCN1C(=O)/C(=C/c2ccc(O)c(OC)c2)S/C1=N/c1nccs1`, for which the AC50 under setting [1] was 12.6 µM [rising, partial curve, poor fit] and the AC50 under setting [2] was 25.1 µM [rising, single point].
For the molecule `COc1ccc(C(CNC(=O)/C=C/c2c(Cl)nc3ccccn23)N(C)C)cc1` (stereo unspecified), the AC50 under setting [1] was 12.6 µM [falling, single point].
For `COc1cccc(-c2cncnc2NCCc2c[nH]c3ccc(OC)cc23)c1`, the AC50 under setting [1] was 7.08 µM [falling, partial curve] and the AC50 under setting [2] is 8.91 µM [falling, partial curve, poor fit].
For `COc1cc(N)c(Cl)cc1C(=O)N[C@H]1CCN(CCCOc2ccc(F)cc2)C[C@H]1OC`, under setting [1], the AC50 was 0.562 µM [falling, full curve, poor fit].
Still for that read-out and setting: with `COc1ccc(NC(=O)Cn2cnc3c(oc4ccccc43)c2=O)cc1OC` the figure was 1.12 µM [rising, full curve].
As to `C/C(CC(=O)NC(C)C)=N\NC(=O)C(c1ccccc1)c1ccccc1`, the AC50 under setting [2] is 12.6 µM [falling, partial curve, poor fit].
